Assay results as given in publication PMC12381156.
Results are given in words; binding and its absence hold for the method and conditions named. Where a sequence is shown, tags or fusion partners need not be part of it.

Target: T1, G protein-coupled bile acid receptor 1 (GPBAR1), full-length human, with N-terminal FLAG and BRIL (human), Q8TDU6
T1 chain: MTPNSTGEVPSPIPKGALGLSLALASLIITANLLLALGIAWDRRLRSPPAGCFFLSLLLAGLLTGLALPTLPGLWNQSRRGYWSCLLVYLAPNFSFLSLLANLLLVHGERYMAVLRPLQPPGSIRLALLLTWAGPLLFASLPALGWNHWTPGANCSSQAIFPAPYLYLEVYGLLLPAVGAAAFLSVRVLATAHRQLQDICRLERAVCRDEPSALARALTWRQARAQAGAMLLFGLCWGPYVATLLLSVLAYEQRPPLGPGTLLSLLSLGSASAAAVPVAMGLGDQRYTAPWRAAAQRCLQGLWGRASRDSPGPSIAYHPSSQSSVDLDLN
Test: mass photometry; samples in 20 mM HEPES, 150 mM NaCl, 0.02%/0.002% LMNG/CHS, drop-diluted in PBS to 10 nM (apo-GPBAR1) and 30 nM (GPBAR1/Gs complex with P395 and Nb35); room temperature (18 °C); both purified
Details: remark: other sources report otherwise

binding: no binding (tested: 10 nM)
B1: G protein-coupled bile acid receptor 1 (GPBAR1), full-length human, with N-terminal FLAG and BRIL, Q8TDU6 1-330 (receptor)
chain: T1 chain
